Assay results taken from paper PMC11188183.

Amino acid sequences for entries named in this document (tags omitted). Residues count along the entry.
UniProt P02768, residues 25-609: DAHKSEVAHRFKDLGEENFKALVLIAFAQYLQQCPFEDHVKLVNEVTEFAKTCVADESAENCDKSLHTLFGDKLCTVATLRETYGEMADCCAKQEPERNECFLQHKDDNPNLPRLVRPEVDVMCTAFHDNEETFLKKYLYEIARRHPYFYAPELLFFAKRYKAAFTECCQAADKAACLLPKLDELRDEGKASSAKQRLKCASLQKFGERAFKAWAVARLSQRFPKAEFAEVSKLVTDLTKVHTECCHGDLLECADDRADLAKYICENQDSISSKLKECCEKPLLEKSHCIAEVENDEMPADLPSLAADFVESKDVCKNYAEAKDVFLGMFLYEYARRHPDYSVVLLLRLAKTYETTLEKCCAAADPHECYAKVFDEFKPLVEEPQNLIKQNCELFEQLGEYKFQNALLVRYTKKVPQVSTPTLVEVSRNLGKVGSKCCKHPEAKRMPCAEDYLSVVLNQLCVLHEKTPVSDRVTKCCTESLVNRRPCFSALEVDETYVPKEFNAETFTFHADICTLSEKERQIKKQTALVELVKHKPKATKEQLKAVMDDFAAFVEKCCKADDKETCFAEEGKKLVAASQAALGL
UniProt Q16630: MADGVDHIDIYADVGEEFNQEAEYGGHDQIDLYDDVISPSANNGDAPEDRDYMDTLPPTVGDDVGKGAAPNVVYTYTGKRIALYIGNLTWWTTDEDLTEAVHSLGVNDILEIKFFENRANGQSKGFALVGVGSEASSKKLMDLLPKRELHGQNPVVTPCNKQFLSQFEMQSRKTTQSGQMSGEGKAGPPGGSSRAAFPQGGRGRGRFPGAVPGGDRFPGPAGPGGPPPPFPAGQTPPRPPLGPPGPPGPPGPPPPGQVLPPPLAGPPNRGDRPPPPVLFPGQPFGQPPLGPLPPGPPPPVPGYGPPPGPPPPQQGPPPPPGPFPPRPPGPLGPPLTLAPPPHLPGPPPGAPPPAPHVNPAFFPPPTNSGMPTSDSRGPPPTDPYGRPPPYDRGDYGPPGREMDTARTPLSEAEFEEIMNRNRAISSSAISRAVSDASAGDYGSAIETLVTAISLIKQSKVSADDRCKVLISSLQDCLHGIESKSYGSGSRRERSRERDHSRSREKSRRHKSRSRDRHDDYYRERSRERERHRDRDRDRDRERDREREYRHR
UniProt P35580: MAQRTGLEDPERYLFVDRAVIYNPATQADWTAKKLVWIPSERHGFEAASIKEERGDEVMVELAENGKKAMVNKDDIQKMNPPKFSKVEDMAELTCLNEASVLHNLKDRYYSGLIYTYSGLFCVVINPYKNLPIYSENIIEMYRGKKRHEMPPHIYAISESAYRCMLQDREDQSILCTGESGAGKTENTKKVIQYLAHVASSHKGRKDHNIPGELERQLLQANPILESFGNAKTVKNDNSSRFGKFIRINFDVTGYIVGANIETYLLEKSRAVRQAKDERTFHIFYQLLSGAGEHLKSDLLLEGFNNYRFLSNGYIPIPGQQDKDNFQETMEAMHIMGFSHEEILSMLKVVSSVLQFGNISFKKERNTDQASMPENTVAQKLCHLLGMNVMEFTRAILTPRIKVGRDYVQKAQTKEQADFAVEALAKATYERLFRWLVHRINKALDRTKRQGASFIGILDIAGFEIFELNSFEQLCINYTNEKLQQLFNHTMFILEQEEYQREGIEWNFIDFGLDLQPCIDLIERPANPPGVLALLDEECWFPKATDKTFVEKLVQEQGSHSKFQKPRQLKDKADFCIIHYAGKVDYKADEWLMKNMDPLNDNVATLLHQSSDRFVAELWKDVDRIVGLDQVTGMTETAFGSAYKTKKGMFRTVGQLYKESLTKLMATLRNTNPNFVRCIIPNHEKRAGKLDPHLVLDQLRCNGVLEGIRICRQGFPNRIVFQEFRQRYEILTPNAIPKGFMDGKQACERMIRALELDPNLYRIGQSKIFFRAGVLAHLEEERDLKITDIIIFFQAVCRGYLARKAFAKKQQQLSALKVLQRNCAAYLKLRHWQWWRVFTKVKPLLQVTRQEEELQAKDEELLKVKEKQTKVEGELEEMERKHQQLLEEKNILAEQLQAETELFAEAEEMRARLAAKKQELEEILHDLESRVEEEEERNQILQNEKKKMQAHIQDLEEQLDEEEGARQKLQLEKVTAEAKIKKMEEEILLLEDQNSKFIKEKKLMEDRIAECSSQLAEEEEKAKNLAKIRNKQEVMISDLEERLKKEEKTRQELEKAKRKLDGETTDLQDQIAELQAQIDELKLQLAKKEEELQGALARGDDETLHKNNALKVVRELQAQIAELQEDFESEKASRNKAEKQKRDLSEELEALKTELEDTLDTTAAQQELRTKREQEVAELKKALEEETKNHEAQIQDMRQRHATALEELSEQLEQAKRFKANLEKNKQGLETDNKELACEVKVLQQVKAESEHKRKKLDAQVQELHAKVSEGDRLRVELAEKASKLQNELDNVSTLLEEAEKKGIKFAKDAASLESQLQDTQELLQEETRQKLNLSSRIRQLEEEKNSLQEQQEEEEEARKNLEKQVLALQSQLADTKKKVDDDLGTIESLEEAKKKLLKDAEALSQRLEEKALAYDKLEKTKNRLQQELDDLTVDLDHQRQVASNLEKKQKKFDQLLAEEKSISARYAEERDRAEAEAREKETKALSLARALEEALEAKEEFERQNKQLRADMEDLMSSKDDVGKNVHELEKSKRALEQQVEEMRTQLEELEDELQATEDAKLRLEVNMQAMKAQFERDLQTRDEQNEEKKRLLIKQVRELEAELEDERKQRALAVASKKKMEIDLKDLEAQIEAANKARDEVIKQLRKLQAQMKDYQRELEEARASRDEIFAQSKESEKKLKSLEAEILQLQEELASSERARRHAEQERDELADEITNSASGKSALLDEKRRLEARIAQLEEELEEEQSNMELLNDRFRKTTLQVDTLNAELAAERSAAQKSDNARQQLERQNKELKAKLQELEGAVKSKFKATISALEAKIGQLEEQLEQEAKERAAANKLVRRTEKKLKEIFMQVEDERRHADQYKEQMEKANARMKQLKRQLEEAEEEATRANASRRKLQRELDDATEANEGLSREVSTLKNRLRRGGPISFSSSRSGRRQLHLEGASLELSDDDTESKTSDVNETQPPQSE
UniProt Q01082: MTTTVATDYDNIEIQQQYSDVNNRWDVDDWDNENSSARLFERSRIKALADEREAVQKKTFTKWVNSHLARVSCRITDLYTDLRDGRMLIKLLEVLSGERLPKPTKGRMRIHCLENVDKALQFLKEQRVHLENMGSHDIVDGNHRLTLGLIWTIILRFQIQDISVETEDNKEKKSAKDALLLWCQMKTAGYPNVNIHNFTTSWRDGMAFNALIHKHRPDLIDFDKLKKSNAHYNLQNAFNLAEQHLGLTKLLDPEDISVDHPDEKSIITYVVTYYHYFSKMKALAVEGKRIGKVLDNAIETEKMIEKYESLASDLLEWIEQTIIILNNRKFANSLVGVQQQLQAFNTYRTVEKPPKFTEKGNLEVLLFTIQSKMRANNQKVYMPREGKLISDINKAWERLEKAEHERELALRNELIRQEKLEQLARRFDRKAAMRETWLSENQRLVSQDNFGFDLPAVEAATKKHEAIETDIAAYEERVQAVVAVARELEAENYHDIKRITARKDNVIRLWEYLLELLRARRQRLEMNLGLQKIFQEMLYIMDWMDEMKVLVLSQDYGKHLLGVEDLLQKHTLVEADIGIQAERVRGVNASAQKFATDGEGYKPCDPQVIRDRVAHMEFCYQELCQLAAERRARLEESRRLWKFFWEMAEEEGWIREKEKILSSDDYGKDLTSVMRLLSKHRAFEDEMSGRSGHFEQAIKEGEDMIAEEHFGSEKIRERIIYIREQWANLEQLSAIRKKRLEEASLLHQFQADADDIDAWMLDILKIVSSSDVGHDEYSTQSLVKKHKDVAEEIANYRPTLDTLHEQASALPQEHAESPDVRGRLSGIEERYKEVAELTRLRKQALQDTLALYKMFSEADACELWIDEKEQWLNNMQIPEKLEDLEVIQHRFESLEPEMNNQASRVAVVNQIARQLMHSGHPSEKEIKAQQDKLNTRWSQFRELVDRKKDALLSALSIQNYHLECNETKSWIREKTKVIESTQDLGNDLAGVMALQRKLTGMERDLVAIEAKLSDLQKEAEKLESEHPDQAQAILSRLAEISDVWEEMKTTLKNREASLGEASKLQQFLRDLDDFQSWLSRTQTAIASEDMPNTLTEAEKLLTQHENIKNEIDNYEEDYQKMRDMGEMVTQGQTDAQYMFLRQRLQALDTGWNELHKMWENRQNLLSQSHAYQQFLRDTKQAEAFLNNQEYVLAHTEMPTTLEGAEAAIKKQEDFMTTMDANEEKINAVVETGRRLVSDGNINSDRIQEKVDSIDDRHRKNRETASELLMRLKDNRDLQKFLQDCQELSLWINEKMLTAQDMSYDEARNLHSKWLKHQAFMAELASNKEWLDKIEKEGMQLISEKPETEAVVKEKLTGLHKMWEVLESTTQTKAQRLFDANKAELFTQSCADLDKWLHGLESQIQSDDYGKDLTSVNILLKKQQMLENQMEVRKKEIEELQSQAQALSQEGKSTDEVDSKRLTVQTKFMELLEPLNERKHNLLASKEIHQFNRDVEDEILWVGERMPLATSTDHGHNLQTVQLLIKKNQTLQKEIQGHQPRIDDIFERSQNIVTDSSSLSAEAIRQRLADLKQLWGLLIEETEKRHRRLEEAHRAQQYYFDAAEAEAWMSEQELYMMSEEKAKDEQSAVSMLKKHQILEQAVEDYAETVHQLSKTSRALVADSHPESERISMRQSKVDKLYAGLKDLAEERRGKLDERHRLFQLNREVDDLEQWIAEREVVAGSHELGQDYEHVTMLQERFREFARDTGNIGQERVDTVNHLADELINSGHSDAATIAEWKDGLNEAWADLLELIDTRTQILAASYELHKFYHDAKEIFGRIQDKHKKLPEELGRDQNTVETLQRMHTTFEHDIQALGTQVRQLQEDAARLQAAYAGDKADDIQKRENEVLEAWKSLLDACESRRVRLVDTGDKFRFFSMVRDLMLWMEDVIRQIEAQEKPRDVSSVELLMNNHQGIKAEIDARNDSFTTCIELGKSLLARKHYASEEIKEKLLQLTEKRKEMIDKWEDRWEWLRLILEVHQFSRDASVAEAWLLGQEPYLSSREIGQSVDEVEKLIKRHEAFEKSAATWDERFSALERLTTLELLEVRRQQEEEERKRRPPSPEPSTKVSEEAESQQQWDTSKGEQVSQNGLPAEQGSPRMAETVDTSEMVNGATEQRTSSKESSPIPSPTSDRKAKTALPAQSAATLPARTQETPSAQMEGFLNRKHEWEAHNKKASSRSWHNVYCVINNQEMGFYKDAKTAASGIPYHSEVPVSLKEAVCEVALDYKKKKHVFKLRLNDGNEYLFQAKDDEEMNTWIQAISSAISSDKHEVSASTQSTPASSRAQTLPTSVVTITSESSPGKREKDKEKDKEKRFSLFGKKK
UniProt P68366: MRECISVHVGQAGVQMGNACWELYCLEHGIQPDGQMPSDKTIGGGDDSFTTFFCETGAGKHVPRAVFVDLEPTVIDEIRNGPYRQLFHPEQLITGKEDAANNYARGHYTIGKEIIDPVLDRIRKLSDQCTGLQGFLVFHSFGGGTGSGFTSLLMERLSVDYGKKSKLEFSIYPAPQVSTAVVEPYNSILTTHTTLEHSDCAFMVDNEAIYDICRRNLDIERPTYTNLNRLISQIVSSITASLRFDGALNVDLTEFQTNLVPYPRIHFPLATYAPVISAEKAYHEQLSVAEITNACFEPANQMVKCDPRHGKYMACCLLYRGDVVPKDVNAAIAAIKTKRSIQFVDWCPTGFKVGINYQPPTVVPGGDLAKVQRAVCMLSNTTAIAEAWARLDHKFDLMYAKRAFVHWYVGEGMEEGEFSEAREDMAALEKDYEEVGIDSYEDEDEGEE
UniProt P68371: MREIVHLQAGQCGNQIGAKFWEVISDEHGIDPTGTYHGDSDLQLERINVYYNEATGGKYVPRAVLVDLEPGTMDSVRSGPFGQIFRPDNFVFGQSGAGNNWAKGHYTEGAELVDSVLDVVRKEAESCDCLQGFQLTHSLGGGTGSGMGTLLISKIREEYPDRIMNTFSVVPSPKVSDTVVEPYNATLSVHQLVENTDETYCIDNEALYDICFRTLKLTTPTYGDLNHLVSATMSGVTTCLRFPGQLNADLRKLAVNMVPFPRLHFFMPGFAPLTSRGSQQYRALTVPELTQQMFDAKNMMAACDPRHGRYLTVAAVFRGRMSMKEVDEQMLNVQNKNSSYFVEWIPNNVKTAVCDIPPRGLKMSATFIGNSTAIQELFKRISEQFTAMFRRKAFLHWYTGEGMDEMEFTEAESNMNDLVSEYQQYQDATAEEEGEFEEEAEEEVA

Key:
[1] = biological target: T1, kinesin family member C1 (KIFC1) (human) (UniProt Q9BW19); assay: affinity purification with mass spectrometry; anti-KIFC1 antibody (Abcam ab172620) crosslinked to magnetic beads; nuclear lysate of MDA-MB-468 (AA) cells; LC-MS/MS of the eluate
T1 sequence: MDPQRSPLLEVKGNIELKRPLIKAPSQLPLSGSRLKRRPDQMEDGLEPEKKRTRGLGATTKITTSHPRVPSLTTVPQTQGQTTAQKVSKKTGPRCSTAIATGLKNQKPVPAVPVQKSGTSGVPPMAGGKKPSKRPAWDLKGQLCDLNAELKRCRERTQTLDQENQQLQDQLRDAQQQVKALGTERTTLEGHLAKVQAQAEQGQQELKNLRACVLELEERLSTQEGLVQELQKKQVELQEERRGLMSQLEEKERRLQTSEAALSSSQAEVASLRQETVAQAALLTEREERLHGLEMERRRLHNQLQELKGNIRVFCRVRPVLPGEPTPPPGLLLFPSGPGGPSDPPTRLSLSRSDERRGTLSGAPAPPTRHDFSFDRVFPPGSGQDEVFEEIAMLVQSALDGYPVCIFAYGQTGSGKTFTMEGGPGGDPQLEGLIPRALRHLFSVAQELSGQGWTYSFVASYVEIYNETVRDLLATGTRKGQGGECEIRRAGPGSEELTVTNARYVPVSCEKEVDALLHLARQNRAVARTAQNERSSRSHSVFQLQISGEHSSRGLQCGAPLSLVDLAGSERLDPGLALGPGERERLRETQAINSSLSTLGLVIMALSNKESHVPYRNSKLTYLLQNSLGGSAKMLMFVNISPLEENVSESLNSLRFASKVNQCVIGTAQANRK

[2] = biological target: T1, kinesin family member C1 (KIFC1) (human); assay: affinity purification with mass spectrometry; anti-KIFC1 antibody (Abcam ab172620) crosslinked to magnetic beads; nuclear lysate of HCC1806 (AA) cells; LC-MS/MS of the eluate

ACTBL_HUMAN (from UniProt Q562R1 1-376)
binding [1]: binds

ACTBM_HUMAN (from UniProt Q9BYX7 1-375)
binding [1]: binds

ALBU_HUMAN (from UniProt P02768 25-609)
binding [1]: binds

CPSF6_HUMAN (from UniProt Q16630 1-551)
binding [2]: binds
binding [1]: binds

DDX21_HUMAN (from UniProt Q9NR30 1-783)
binding [1]: binds

DREB_HUMAN (from UniProt Q16643 1-649)
binding [2]: binds
binding [1]: binds

FLNA_HUMAN (from UniProt P21333 1-2647)
binding [2]: binds
binding [1]: binds

GRP75_HUMAN (from UniProt P38646 47-679)
binding [1]: binds

HNRH1_HUMAN (from UniProt P31943 1-449)
binding [2]: binds

HNRPK_HUMAN (from UniProt P61978 1-463)
binding [2]: binds
binding [1]: binds

HS71A_HUMAN (from UniProt P0DMV8 1-641)
binding [2]: binds

HSP77_HUMAN (from UniProt P48741 1-367)
binding [1]: binds

K1C15_HUMAN (from UniProt P19012 1-456)
binding [2]: binds

K1C16_HUMAN (from UniProt P08779 1-473)
binding [2]: binds

K2C7_HUMAN (from UniProt P08729 1-469)
binding [2]: binds

K2C75_HUMAN (from UniProt O95678 1-551)
binding [2]: binds

LIMA1_HUMAN (from UniProt Q9UHB6 1-759)
binding [2]: binds
binding [1]: binds

LMNA_HUMAN (from UniProt P02545 1-646)
binding [2]: binds

MYH10_HUMAN (from UniProt P35580 1-1976)
binding [2]: binds
binding [1]: binds

MYH11_HUMAN (from UniProt P35749 1-1972)
binding [1]: binds

MYH14_HUMAN (from UniProt Q7Z406 1-1995)
binding [2]: binds
binding [1]: binds

MYO1B_HUMAN (from UniProt O43795 1-1136)
binding [2]: binds
binding [1]: binds

MYO6_HUMAN (from UniProt Q9UM54 1-1294)
binding [2]: binds
binding [1]: binds

POTEE_HUMAN (from UniProt Q6S8J3 1-1075)
binding [2]: binds
binding [1]: binds

POTEF_HUMAN (from UniProt A5A3E0 1-1075)
binding [2]: binds

POTEI_HUMAN (from UniProt P0CG38 1-1075)
binding [2]: binds

POTEJ_HUMAN (from UniProt P0CG39 1-1038)
binding [2]: binds

PTBP1_HUMAN (from UniProt P26599 1-557)
binding [2]: binds
binding [1]: binds

SETLP_HUMAN (from UniProt P0DME0 1-292)
binding [2]: binds

SPTB2_HUMAN (from UniProt Q01082 1-2364)
binding [1]: binds

TBA1C_HUMAN (from UniProt Q9BQE3 1-449)
binding [2]: binds
binding [1]: binds

TBA3C_HUMAN (from UniProt P0DPH7 1-450)
binding [2]: binds
binding [1]: binds

TBA3E_HUMAN (from UniProt Q6PEY2 1-450)
binding [2]: binds
binding [1]: binds

TBA4A_HUMAN (from UniProt P68366 1-448)
binding [2]: binds

TBA8_HUMAN (from UniProt Q9NY65 1-449)
binding [2]: binds

TBB2A_HUMAN (from UniProt Q13885 1-445)
binding [1]: binds

TBB2B_HUMAN (from UniProt Q9BVA1 1-445)
binding [1]: binds

TBB3_HUMAN (from UniProt Q13509 1-450)
binding [1]: binds

TBB4A_HUMAN (from UniProt P04350 1-444)
binding [1]: binds

TBB4B_HUMAN (from UniProt P68371 1-445)
binding [1]: binds

TBB5_HUMAN (from UniProt P07437 1-444)
binding [1]: binds

TBB6_HUMAN (from UniProt Q9BUF5 1-446)
binding [1]: binds

ZN852_HUMAN (from UniProt Q6ZMS4 1-543)
binding [1]: binds

B1: K1C18_HUMAN (protein, UniProt P05783 1-430)
chain: MSFTTRSTFSTNYRSLGSVQAPSYGARPVSSAASVYAGAGGSGSRISVSRSTSFRGGMGSGGLATGIAGGLAGMGGIQNEKETMQSLNDRLASYLDRVRSLETENRRLESKIREHLEKKGPQVRDWSHYFKIIEDLRAQIFANTVDNARIVLQIDNARLAADDFRVKYETELAMRQSVENDIHGLRKVIDDTNITRLQLETEIEALKEELLFMKKNHEEEVKGLQAQIASSGLTVEVDAPKSQDLAKIMADIRAQYDELARKNREELDKYWSQQIEESTTVVTTQSAEVGAAETTLTELRRTVQSLEIDLDSMRNLKASLENSLREVEARYALQMEQLNGILLHLESELAQTRAEGQRQAQEYEALLNIKVKLEAEIATYRRLLEDGEDFNLGDALDSSNSMQTIQKTTTRRIVDGKVVSETNDTKVLRH
binding [1]: binds

B2: CCNK_HUMAN (protein, UniProt O75909 1-580)
chain: MKENKENSSPSVTSANLDHTKPCWYWDKKDLAHTPSQLEGLDPATEARYRREGARFIFDVGTRLGLHYDTLATGIIYFHRFYMFHSFKQFPRYVTGACCLFLAGKVEETPKKCKDIIKTARSLLNDVQFGQFGDDPKEEVMVLERILLQTIKFDLQVEHPYQFLLKYAKQLKGDKNKIQKLVQMAWTFVNDSLCTTLSLQWEPEIIAVAVMYLAGRLCKFEIQEWTSKPMYRRWWEQFVQDVPVDVLEDICHQILDLYSQGKQQMPHHTPHQLQQPPSLQPTPQVPQVQQSQPSQSSEPSQPQQKDPQQPAQQQQPAQQPKKPSPQPSSPRQVKRAVVVSPKEENKAAEPPPPKIPKIETTHPPLPPAHPPPDRKPPLAAALGEAEPPGPVDATDLPKVQIPPPAHPAPVHQPPPLPHRPPPPPPSSYMTGMSTTSSYMSGEGYQSLQSMMKTEGPSYGALPPAYGPPAHLPYHPHVYPPNPPPPPVPPPPASFPPPAIPPPTPGYPPPPPTYNPNFPPPPPRLPPTHAVPPHPPPGLGLPPASYPPPAVPPGGQPPVPPPIPPPGMPPVGGLGRAAWMR
binding [1]: binds

B3: K1C13_HUMAN (protein, UniProt P13646 1-458)
chain: MSLRLQSSSASYGGGFGGGSCQLGGGRGVSTCSTRFVSGGSAGGYGGGVSCGFGGGAGSGFGGGYGGGLGGGYGGGLGGGFGGGFAGGFVDFGACDGGLLTGNEKITMQNLNDRLASYLEKVRALEEANADLEVKIRDWHLKQSPASPERDYSPYYKTIEELRDKILTATIENNRVILEIDNARLAADDFRLKYENELALRQSVEADINGLRRVLDELTLSKTDLEMQIESLNEELAYMKKNHEEEMKEFSNQVVGQVNVEMDATPGIDLTRVLAEMREQYEAMAERNRRDAEEWFHTKSAELNKEVSTNTAMIQTSKTEITELRRTLQGLEIELQSQLSMKAGLENTVAETECRYALQLQQIQGLISSIEAQLSELRSEMECQNQEYKMLLDIKTRLEQEIATYRSLLEGQDAKMIGFPSSAGSVSPRSTSVTTTSSASVTTTSNASGRRTSDVRRP
binding [2]: binds

B4: ANX10_HUMAN (protein, UniProt Q9UJ72 1-324)
chain: MFCGDYVQGTIFPAPNFNPIMDAQMLGGALQGFDCDKDMLINILTQRCNAQRMMIAEAYQSMYGRDLIGDMREQLSDHFKDVMAGLMYPPPLYDAHELWHAMKGVGTDENCLIEILASRTNGEIFQMREAYCLQYSNNLQEDIYSETSGHFRDTLMNLVQGTREEGYTDPAMAAQDAMVLWEACQQKTGEHKTMLQMILCNKSYQQLRLVFQEFQNISGQDMVDAINECYDGYFQELLVAIVLCVRDKPAYFAYRLYSAIHDFGFHNKTVIRILIARSEIDLLTIRKRYKERYGKSLFHDIRNFASGHYKKALLAICAGDAEDY
binding [2]: binds

B5: LAD1_HUMAN (protein, UniProt O00515 1-517)
chain: MAVSRKDWSALSSLARQRTLEDEEEQERERRRRHRNLSSTTDDEAPRLSQNGDRQASASERLPSVEEAEVPKPLPPASKDEDEDIQSILRTRQERRQRRQVVEAAQAPIQERLEAEEGRNSLSPVQATQKPLVSKKELEIPPRRRLSREQRGPWALEEESLVGREPEERKKGVPEKSPVLEKSSMPKKTAPEKSLVSDKTSISEKVLASEKTSLSEKIAVSEKRNSSEKKSVLEKTSVSEKSLAPGMALGSGRRLVSEKASIFEKALASEKSPTADAKPAPKRATASEQPLAQEPPASGGSPATTKEQRGRALPGKNLPSLAKQGASDPPTVASRLPPVTLQVKIPSKEEEADMSSPTQRTYSSSLKRSSPRTISFRMKPKKENSETTLTRSASMKLPDNTVKLGEKLERYHTAIRRSESVKSRGLPCTELFVAPVGVASKRHLFEKELAGQSRAEPASSRKENLRLSGVVTSRLNLWISRTQESGDQDPQEAQKASSATERTQWGQKSDSSLDAEV
binding [2]: binds

These are yes or no findings as the source states them, for the method shown. In cells and extracts the contact can be indirect. A yes stands for co-enrichment or nearness to the bait. Other partners may have been found.
